Experimental data: publication PMC7862700
Some of the results follow. Construct or isoform of the protein are uncertain.

biological target: T1, ETV4 (UniProt P43268); test: DAPPL (digital affinity profiling via proximity ligation, sequencing); details: 10 mM Tris-HCl pH 7.5, 50 mM NaCl, 1 mM DTT, 4% glycerol, room temperature, 30 min; GST-TFs on glutathione beads, 16-mer random dsDNA library, 0.1% …; high values mean tight binding; double strand, one strand shown; scale: fold enrichment (6-mer frequency, TF over GST control)
T1 sequence: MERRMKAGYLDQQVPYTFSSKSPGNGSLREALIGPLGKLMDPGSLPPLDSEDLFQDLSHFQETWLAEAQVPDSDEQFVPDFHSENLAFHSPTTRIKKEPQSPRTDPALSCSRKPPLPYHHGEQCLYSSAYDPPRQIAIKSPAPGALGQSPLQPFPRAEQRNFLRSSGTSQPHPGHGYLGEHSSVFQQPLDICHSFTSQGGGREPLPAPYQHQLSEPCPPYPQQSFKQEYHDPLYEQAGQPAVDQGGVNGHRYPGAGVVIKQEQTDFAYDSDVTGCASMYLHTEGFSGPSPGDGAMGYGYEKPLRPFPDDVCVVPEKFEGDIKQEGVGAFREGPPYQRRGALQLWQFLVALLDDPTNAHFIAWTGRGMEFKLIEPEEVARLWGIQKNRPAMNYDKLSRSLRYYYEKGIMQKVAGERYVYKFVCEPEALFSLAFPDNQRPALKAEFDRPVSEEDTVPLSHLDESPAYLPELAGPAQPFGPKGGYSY

Sequence | binding signal
TAGTAT | 1.3
AACCGG | 1.45
TCACCC | 1.23
TTATCC | 1.49
CTCCCC | 1.51
TGTCCT | 1.52
AAGTTG | 1.07
ACAAAA | 1.16
CTGCTC | 1.37
TGTCTT | 1.3
TATACA | 1.38
TATGTT | 1.23
CGAACT | 1.08
AAGTTC | 1.5
TATGCA | 1.28
GTCTCC | 1.46
CGTCTT | 1.49
CTGTAC | 1.36
ATGCAG | 1.04
ACGTTT | 1.22

An excerpt of the results above:
Sequence | binding signal
CGAACT | 1.08
AAGTTC | 1.5

Continued:

Sequence | binding signal
TGGAAT | 1.27
CCGAGC | 1.2
TCTTTC | 1.34
CCTCCG | 1.5
TGCTGG | 1.2
CTAGTA | 1.09
TTCGCC | 1.17
ATACAC | 1.32
GAAGTA | 2.15
TATAGC | 1.13
GCCCAC | 1.04
CGGAAG | 3.2
GCTGCT | 1.45
GTTCTG | 1.15
ATTACT | 1.32
CTCCAG | 1.15
TACACT | 1.54
TATCAA | 1.05
ACCCTG | 1.02
TCATGT | 1.13
